Laboratory results published in patent US9597306B1, “Fumarate compounds, pharmaceutical compositions thereof, and methods of use” (priority 2015, dated 2017).
Some results were stated once for a whole list of compounds, not compound by compound.

Columns and labels:
[1] = Stability of fumarate compounds in PBS buffer; assay type: physicochemical; conditions: PBS 50 mM, pH 7.0 to 7.4, 20 to 37° C., 30 min, HPLC
porcine liver esterase = assay: Hydrolysis of fumarate compounds in vitro by porcine liver esterase; assay type: in vitro ADME; conditions: porcine liver esterase in PBS buffer pH 7.0 to 8.0, 20 to 37° C., ca. 24 h, HPLC

SMILES	stable (stability in PBS buffer) [1]	converted to monoester fumarates and/or fumaric acid (porcine liver esterase)
CN(C)C(=O)C(=O)COC(=O)/C=C/C(=O)OCC(=O)C(=O)N(C)C [Compound 1, Bis[3-(dimethylamino)-2,3-dioxo-propyl] (E)-but-2-enedioate]	> 90%	> 15%
CCN(CC)C(=O)C(=O)COC(=O)/C=C/C(=O)OCC(=O)C(=O)N(CC)CC [Compound 2, Bis[3-(diethylamino)-2,3-dioxo-propyl] (E)-but-2-enedioate]	> 90%	> 15%
O=C(/C=C/C(=O)OCC(=O)C(=O)N1CCOCC1)OCC(=O)C(=O)N1CCOCC1 [Compound 3, Bis(3-morpholino-2,3-dioxo-propyl) (E)-but-2-enedioate]	> 90%	> 15%
